Reference: PMC11984871, “Perillaldehyde Improves Parkinson‐Like Deficits by Targeting G3BP Mediated Stress Granule Assembly in Preclinical Models” (Advanced Science, 2025)

Amino acid sequences for entries named in this document (tags omitted).
UniProt Q13283: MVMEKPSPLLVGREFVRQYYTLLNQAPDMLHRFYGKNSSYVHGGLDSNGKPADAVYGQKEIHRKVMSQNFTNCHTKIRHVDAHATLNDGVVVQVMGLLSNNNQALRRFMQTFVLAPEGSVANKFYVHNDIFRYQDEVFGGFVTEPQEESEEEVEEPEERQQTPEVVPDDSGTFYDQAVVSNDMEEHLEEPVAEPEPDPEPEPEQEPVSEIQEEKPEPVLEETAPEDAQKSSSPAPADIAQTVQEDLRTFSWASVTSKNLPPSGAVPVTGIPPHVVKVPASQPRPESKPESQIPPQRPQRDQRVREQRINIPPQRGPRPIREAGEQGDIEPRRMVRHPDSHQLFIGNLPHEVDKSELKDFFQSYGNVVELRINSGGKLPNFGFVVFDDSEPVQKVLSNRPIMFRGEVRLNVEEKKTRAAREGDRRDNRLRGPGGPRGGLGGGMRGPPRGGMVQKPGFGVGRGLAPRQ
UniProt Q9UBN7: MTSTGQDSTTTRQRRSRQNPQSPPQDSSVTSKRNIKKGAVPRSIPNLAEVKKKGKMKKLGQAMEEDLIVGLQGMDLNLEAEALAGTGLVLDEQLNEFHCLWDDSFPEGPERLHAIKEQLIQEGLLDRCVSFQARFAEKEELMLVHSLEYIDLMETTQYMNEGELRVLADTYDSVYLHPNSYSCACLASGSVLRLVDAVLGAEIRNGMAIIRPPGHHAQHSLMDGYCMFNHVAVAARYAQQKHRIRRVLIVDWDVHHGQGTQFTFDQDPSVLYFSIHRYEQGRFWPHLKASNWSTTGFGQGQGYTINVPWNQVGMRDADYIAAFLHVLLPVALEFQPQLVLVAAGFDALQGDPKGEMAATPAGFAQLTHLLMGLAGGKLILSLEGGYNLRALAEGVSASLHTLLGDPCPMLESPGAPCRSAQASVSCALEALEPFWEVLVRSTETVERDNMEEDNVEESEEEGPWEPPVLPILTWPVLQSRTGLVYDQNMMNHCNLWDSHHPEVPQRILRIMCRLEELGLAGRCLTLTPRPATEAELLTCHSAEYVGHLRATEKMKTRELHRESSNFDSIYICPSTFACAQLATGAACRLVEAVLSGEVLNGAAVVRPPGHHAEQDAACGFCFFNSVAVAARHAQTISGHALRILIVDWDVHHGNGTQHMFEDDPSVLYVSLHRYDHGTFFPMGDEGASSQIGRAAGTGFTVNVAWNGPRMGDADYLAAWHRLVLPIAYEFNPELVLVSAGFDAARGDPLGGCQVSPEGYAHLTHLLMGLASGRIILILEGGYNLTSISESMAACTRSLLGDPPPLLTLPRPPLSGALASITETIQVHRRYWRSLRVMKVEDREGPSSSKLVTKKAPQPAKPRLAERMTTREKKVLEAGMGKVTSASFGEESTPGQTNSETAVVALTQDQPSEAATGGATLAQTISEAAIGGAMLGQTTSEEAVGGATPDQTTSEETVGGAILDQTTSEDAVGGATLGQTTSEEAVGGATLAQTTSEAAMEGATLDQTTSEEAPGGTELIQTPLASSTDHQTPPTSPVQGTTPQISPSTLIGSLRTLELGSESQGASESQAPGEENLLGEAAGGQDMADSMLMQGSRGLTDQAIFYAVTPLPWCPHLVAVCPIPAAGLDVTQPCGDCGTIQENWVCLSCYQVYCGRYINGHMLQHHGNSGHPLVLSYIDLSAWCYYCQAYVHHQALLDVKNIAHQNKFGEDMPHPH

Molecular target: hG3BP1-TurboID-GFP, expressed from pCS2-hG3BP1-TurboID-GFP in SH-SY5Y cells (human) (UniProt Q13283)
Assay: proximity labelling; TurboID: SH-SY5Y cells transfected with pCS2-hG3BP1-TurboID-GFP for 36–48 h, biotin for 15 min, RIPA lysate, streptavidin beads, mass spectrometry; 6-OHDA-treated versus untreated cells

HDAC6, endogenous in SH-SY5Y cells (from UniProt Q9UBN7 1-1215) (enzyme)
binding: binds

These are yes or no findings as the source states them, for the method shown. In cells and extracts the contact can be indirect. These calls come from enrichment with a bait or labelling near it, and not all partners need be listed.
